In publication PMC2607300:
These are yes or no findings as the source states them, for the method shown. In cells and extracts the contact can be indirect. These calls come from enrichment with a bait or labelling near it, and not all partners need be listed.

The chains behind the UniProt entries cited, without tags or fusion partners. Where a name states a change or a piece, a line headed by the entry shows the natural chain unless it says otherwise.
UniProt A0A1D8PGP2: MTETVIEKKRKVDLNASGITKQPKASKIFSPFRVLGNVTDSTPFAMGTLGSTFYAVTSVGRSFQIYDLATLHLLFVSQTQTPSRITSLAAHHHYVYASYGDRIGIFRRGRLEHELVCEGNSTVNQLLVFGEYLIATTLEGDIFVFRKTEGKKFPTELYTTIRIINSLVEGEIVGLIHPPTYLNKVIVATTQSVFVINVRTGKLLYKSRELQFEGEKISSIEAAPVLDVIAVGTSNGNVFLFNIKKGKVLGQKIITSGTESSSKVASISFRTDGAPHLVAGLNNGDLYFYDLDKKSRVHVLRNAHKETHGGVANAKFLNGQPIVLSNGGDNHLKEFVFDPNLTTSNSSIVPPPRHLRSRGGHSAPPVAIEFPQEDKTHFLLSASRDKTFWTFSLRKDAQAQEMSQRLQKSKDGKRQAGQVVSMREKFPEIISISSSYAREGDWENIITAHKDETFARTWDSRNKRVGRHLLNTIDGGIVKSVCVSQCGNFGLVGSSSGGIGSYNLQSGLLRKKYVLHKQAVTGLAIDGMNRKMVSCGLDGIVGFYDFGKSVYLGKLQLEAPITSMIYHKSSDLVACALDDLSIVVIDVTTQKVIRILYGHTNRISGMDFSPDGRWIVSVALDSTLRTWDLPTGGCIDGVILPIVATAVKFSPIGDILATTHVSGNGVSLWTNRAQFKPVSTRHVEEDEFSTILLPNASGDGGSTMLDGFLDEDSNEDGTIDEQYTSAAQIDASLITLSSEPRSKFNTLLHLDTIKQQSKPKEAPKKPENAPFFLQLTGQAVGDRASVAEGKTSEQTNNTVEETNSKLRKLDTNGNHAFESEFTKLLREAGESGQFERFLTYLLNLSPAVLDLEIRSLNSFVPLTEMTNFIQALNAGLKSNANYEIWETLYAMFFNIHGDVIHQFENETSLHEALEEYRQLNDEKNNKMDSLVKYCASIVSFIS
UniProt A0A1D8PU46: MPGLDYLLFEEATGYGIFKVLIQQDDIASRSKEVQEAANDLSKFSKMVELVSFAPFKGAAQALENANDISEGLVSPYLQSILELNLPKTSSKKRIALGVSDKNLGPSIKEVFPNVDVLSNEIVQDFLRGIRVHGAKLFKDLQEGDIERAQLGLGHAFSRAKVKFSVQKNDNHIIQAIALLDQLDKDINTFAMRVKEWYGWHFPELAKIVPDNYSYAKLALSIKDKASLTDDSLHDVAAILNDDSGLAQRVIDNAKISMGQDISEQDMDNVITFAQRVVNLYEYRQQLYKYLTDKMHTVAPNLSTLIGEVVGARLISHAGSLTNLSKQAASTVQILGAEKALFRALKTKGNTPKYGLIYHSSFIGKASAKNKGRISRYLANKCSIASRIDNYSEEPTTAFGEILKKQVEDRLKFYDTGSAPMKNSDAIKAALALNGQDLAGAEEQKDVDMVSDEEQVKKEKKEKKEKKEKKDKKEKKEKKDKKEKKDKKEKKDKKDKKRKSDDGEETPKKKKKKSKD
UniProt A0A1D8PIX3: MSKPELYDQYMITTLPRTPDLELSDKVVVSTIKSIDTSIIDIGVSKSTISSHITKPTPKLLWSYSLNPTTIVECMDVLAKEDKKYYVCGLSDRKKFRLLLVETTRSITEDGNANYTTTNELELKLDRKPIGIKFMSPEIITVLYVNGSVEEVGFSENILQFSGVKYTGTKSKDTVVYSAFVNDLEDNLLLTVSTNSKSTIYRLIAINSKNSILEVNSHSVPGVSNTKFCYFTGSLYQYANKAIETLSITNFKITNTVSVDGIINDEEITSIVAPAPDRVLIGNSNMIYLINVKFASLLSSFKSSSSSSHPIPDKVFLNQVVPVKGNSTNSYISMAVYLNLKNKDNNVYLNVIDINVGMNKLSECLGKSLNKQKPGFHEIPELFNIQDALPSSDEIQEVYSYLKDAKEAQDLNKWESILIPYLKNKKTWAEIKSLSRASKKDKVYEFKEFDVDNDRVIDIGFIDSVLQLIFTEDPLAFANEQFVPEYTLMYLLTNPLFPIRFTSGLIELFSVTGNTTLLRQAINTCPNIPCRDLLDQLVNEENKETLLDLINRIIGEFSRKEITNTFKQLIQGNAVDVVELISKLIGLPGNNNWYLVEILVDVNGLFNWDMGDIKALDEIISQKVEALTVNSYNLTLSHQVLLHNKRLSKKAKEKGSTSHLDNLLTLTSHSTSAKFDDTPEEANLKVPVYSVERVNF
UniProt A0A1D8PU59: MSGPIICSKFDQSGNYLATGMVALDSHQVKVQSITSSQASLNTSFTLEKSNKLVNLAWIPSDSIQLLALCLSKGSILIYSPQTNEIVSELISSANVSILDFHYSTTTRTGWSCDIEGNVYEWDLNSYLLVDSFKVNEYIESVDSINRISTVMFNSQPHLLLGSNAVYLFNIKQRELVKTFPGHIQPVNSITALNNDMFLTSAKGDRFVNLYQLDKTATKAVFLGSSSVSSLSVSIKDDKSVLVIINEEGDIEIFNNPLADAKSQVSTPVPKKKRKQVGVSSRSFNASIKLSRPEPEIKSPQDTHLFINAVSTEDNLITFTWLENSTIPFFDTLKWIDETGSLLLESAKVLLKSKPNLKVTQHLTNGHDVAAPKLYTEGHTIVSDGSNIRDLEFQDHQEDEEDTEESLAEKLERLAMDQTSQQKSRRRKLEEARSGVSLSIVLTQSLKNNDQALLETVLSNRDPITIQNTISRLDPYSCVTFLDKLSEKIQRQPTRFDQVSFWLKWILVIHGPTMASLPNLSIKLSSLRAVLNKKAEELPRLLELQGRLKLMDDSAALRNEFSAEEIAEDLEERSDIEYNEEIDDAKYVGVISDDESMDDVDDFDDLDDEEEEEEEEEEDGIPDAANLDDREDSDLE
UniProt A0A1D8PRJ5: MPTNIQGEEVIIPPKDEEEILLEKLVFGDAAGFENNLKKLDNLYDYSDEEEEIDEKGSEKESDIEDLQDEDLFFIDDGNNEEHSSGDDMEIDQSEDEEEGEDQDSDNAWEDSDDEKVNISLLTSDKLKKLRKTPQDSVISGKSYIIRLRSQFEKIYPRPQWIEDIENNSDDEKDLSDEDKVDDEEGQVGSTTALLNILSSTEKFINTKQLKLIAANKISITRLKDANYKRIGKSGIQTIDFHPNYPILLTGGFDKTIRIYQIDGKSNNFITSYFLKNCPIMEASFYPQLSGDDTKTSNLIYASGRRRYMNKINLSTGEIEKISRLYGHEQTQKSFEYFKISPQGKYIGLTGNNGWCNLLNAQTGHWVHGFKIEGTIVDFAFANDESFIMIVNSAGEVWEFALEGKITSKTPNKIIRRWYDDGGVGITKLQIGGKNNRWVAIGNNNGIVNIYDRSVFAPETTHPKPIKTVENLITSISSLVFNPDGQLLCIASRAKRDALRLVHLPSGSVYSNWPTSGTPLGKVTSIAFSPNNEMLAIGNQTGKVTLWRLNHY
UniProt A0A1D8PJD3: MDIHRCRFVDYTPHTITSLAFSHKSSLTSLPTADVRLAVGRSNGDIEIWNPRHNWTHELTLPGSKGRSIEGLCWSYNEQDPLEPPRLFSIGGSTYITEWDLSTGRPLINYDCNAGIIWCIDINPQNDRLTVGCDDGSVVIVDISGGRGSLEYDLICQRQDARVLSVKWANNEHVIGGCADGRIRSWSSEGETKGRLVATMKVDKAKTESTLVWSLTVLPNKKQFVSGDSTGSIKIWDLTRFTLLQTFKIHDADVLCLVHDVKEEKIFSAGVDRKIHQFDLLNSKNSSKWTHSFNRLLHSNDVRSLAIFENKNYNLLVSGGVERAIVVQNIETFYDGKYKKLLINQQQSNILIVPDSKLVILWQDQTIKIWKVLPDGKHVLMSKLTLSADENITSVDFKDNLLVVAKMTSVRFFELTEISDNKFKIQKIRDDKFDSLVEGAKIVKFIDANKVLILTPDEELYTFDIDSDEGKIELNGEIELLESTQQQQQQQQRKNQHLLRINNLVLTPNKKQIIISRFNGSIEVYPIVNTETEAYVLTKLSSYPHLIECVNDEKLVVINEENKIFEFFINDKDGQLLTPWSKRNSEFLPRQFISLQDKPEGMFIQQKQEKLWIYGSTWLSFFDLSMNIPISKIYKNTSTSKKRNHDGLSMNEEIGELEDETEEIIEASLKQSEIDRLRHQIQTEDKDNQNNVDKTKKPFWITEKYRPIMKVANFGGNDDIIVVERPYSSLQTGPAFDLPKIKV
UniProt A0A1D8PNG5: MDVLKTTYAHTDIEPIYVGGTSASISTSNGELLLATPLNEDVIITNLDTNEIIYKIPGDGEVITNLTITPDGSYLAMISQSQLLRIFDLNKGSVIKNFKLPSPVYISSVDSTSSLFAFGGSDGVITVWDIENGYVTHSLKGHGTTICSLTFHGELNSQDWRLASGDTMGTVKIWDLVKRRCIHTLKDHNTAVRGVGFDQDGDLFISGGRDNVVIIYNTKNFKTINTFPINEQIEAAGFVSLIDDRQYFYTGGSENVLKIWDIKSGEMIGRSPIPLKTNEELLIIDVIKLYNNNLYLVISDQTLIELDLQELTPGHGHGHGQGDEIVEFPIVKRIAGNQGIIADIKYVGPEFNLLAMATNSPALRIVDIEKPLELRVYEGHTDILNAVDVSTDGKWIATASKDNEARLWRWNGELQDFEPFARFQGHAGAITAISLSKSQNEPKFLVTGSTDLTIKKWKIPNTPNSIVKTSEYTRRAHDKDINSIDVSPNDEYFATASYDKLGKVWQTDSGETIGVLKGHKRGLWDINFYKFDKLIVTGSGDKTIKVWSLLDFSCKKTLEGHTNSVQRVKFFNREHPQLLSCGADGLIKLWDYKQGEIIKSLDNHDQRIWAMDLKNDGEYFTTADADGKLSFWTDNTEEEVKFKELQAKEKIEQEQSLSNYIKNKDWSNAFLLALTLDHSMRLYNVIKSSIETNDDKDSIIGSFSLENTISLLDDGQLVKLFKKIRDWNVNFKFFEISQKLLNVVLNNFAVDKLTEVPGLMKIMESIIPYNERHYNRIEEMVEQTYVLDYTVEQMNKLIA

T1: Nop1-TAP (C. albicans) (UniProt Q5A0V9)
T1 sequence: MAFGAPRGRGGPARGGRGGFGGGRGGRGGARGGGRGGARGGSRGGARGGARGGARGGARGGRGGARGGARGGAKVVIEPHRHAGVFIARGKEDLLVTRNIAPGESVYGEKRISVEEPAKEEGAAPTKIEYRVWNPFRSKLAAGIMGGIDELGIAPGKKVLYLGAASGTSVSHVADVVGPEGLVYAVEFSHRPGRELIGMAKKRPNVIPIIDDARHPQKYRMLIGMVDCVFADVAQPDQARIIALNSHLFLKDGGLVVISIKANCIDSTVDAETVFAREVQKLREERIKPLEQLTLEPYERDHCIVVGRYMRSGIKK

B1: Bud21 (protein, UniProt Q5A7N6 1-219)
chain: MVLTRSQTHYKQPIKKKFTDDDFSDEEKVSPSLPVQPEDDYSSEEEEEDDDDDDDSDDAPEEESTSKARSDILSEQKRLQQVEAELKKQEREKRKALDLRNTQQQQMKKSKQKSNPSTAPIELPEFLPDDIASIINQPVEESKPRHIRLDEIEASPKLDKKSLLEEKLRLLKAKKKVAIKKGPVHVKIQSFNSKVVPRSESKIVKNRDKWLHRKSVNRK
B2: Pwp2 (protein, UniProt Q5A852 1-922)
chain: MKSDFKFSNLLGTVYRKGNLVFNQDGTKLLSPVGNRVSCFDLIKSQSFTFDYQHRKNVQCIALNNQNTLMISIDEDGRAILVNFVSRVVLHHFNFKSKVNDIKFSPCGKYFAIAIDRFIQVWKTPDLTEDRQFAPFVRHRIYSGHFDEVLNISWSLDSRFFISTSKDMTAKIFSLNSDEKDVAMTFSGHRDYVINAFFSHDQEIIYTVSKDGALFKWEYTERPKPENEDSDSEDDATDKPMSWRITAKNFFYADGKLKCACFHPQSKLLVVGFTNGEFRLYEIEDFNLIQSLSMGQNAVNTVNINKTGEWLAFGSAKLGQLLVYEWQSESYILKQQGHFDSMNTLCYSPDGSRLVTGSDDGKIKIWDVRSGFCLMTFTEHTSAVTQVQFAKRGQVLFSSSLDGTIRAWDLIRFRNFKTFTATSRVQFNCLAVDPSGEVIVGGSQDTFEIYVWSVQTGQLLDSLTGHEGPISCLTFGKENSILASASWDKTIRIWNIFSRNQTVEPIEIQSDALCLTMRPDCKELAVSTLDGHVTIFDIEDAKQLHLIDGRKDIVNGRYLEDKFIAKNSNRGKYFSTIAYSFDGLTLLAAGNNNSICMYDIENEVLLKRFIVSENMSLDGTLQFLNSSKITDAGTNSDLIDRAGELSDLEDRVDNSLPGSHRGGDPSERRTRPEVRVTAVEFSPTTAAFAAASTEGLLIFSINQELIFDPFDLDVDVTPEATLESLKEKEYLVALVMAFRLNENYLIHRVIESIPLQDIKLVCQDLPVIYVNRVLNFIGELLTKKESPHIEYYLIMVKNLLIQHGRYISSNKFEFQSSMKLLSRFLNKTAKDVINVGKRNDHLLTYLTVSKDLKTASGHSEGEENIEMNEDSEAEDIDIDEDDDDEEGWLGPNGNSVKAANGIVFSGPADSSDEEDEDELIEV
B3: Nan1 (protein, UniProt Q5AFB9 1-839)
chain: MPSAISEWSLSMATGGKPLYLPCSQTTASVYSQDGRYVIIALTHQLRVYFISTRQCIKTIDLDLHDLADLKIDVTNGNQVLLFKTSGEILTVNWKDKVSQPIISTIDINKTQSGTSLPLLSVISVKHLFFIIVTGRKEKKKGTPHTRYINYFDRNSESLVPIIEVANSINFATSLDNTKIAFITSGNEIDLFDLSGIFNVDSIENLSDNDIVKETIPFVYRSPVTSIAVSNDSMIAIGTSAGPIQIVYGGLTTPKPQRVLKWHLDQVKGLMFTADNNYLLSGGMEKVLVFWQLETEKKQFLPRLNGVIDKISIDNYKNDYISLQLNVDPLDNNYEILVLSAVDLVSRLSVNTVRPKFAYNIATTLSKTKKKFIKSSSDFDKFKIRYDYTSQFEIHPKTKSMYFPNGALIQSFDLFKNEQNFIQHGAPVLGVGKVRSETKLLDPLVTLLKFTHDGEWMCTFDEFTNTEVDSLLLKNEKQYALKFWKYVGHKENATSGINNNNKTGHWELTTKIIDPHGMNPILAMIPAPTSYFNGLAFLTADDKGGLRIWRPSVPKEQYKTTSARSQQTAWTLRKSRAPSALSSDAVALSWSDDNSLIFLAHECSILTIDSKSFEEIPDFKIPSLSGSRVRSLNMVNNNLIVLSKTRISSFDLITGELTSLVAKVNTTIGAKNLIAIDPIKRLICLALNYYSEENNTLSIKSKILIFKPNQLKPICVQLHEQGVSSIRYFNSSFVFVDLDCRVGTIYSNEEITETIELGLTQEINNMLIAAQATADVINDRNVKTTVGHQNGNKEGEMDIDNSMAYAAKVVDLHTFQPIFQNIEGVQVESLFERIVNVLK
B4: Dip2 (protein, UniProt Q5A756 1-981)
chain: MVKSYNRYDQEKCFGVITSQANIVWLPPSETQSSTSMGRALTSGLEEILIWDIKTGEIMNRMSDGLTPGSSNASTTVPPSPVSYLTYHQETNIIAAGYTDGSIKIWDISSNSVIINFEGHNSSITQLKFDKNGTRLVSGSSDSSIIMWDLIGEVGMFKLKGHKGPITGLELLSEQQNTQQDGDNVDDVDDMDDYLVSVSKDGLIKLWELKSQQCIETHLAHSNECWAMGINPTKDMLITSGNKDQVKVWSLDLSLEDGLKIGERGSFEKTSKSRSNEIAFKSLKSSSSSASLIQLFSIQNADRTMEIFRIRSEDEIKRGITKRTKRLKDKGLDEQEILESLQSSEISMLITPFTTMRTMAKIKSACWTNNIKKLDILMSLTNNSIEYHTIPVPETPKKAQSADLYSVKQHTIDLLGHRFDIRAMDISPQDNKLLATASNGELKIWNTRSYNVIRTFVLEGGYALCCKFLPGGTLIVVGFKNGDLELYDLATSSLVDRVEKAHSAITVGGAAPSNDDSAAIWSLDITPDGKTLVTGGNDKCVKFWNFKVEQDIIPGTNTTVSHLKFVHTQTLELNEDVLCVRISPDAKYLAISLLNNNVQVVFLDTLKLFLTLYGHRLPVLSIDISHDSKLIITSSADKNIKIWGLDFGDCHKSIFAHQDSIMNVRFIGDTHNFFSSGKDGLIKYWDGDKFECIQRLPAHQSEVWCMAISDDGLFMCSTSHDHSIRLWSATDDQVFLEEEKEKELDEIYENKLLDQIDGVDGEDHTNMKDDNDEEIDEATKVSKQTMETLKAGEKLMEALDIGVEDIEANKEYLSLVKQGKQAIKPTPNSILLAFNMTASQYVLNVLSKIRPAQLDDALLVLPFSYSLKLLQFIEIWTNKENITQNVVSISLICKVLFFVISSNSKELISQKDPHLKNQLIKVKEQLRQELSKTSNQLGVNTQGLKFVKKQWKLQHASEFIDEEEQRQYEEKRAIKRTYTTI
B5: Rrp9 (protein, UniProt Q5A213 1-549)
chain: MAGDPFLSDPSKKRKRSNKLTSKTKRSKSSTPTPTPTPTPNTNHQDDDISSGSDSENGHANGTNENDHGDNESELSSDEEFADETVNDKRRRLAKQYLENLKQNEHELYDEFDAKDLDDDILARRLQKDIAETKGYVYKFVGDKIKDQLDEEYPLELITTRIGCKNLTSMTINYPFLYTVSKDMEIIKWDINETHKKPKRIKHTKGGNKYFEINTINPQLNHHWQQINCIAASPDGKYIVTGGSDSRLIIWSSENLTCLKVLPTRSSVNSIVFRRNSDQLFAACADLRIRTYSINQFTQLEILYGHQDNISDISALAKETCVSVGSRDKTAMFWKIAEESRLTFRGGDSLEKTNKKKKRHYHQEEEEAETENDESTFYNEGSIDVVSMIDESHFVTGSDNGNVALWSLAKKKPLTTKRLSHGLQPQFTPIQASSESNEELALQQIPKPQPYWITAIHGVPYSDIFITGSFNGTIKIWKLEEPSLRSFKLLGEIKQNNLNGCIVKIDSVEIPNTKKLKIYVLLSKEHKFGRWLGKLPGARNALVNFTVNL
B6: Utp15 (protein, UniProt Q59Y40 1-423)
chain: MSSTKQDLPQARAPTLPSKTTPEQRYWRSYITPQLIKENHPITSIEFNPTTPNDFAIASATKIQVFSSKTRQVIKTFSRFKDVVYSGNYRYDGKLLVASDASGLVSIYDSYQPRNLLVSLTPSSHPTHVAKFHPTIGNQLITGSDDRMLRVYDISQTSNGPIIQFDNIDHEDYIRSVNFIPGDSNLIVTGCYDGNVRILDVRDPHRVVAKFDQENPVEDILAVSSNTLVSAGGPYVKIWDLNRMSQIHQLNNFNKSTTCLSNTHTNGLMVGSLDSTIKVFDYTSTNWQVQFGWKFGSGVLSCGVSPINQKHFVAGLTSGLISIRTKKTEPKVKQGIKNDVSGGYARMMKGRDYTGEEEDHIIESSKIITNKTNKSVNELMSSYKKYLGASGSIDDIKPNDLKQEISQCLKAKEICGMLELLGV
B7: Utp9 (protein, UniProt Q5ADY1 1-445)
chain: MKYALNGNKVATLIDRNGKDEIRVYNVDERGDSEVVASIILEDIIDFVWASPTTRKKRTPNGGSKESENQNLLVVLLKESVFVVLSEGSEINRFKIDDQIDKLVKYDENIWAATENSILKVSLDGDVKDKIKVPAFNAISISNKIAFGSTSLQIGKFAKGKFVCEDEIKVVGEIKSILQSKYPVVLTEDNNAYLIKKKVQKLSDAHHIQLLHYREKDYIVAISDNLNFYNDGKLENSISSETALEGVLSVEDSLVVFWSGKNELLFKKIDWSDDEIVIPRGELLMNGTKAHIKVAKPKVYKTDATSLMKKLSGISDHAAIVGLCQSVGDSTVIKEVSKEIGLELFPVISDAVSKDTTNTNLALWFKWIYLIHGKHIAKQDIAPVKEAKTQLESGVKLMSHLIAIQGKLQLLKLQNEMREKNVVRDVTTTIDDDSMVYANGEADII

The molecules below were run against T1, Nop1-TAP (C. albicans) (assay: affinity purification with mass spectrometry; Nop1-TAP as bait, standard tandem affinity purification from C. albicans; TCA precipitate digested with trypsin in solution, or in-gel digestion of SYPRO Ruby stained SDS-PAGE bands; nanoLC LTQ-Orbitrap, Mascot search).

binding, binds:
Utp21 (from UniProt A0A1D8PGP2 1-942)
Sik1 (from UniProt A0A1D8PU46 1-516)
Utp8 (from UniProt A0A1D8PIX3 1-696)
Nop5 (C. albicans)
Utp5 (from UniProt A0A1D8PU59)
Utp18 (from UniProt A0A1D8PRJ5 1-552)
Utp4 (from UniProt A0A1D8PJD3 1-743)
Utp13 (from UniProt A0A1D8PNG5 1-799)
B1
B2
B3
B4
B5
B6
B7
